The other results are listed elsewhere or left out.
How the values were obtained:
Test in all cases: glycan array binding signal (z-score within array); higher = stronger binding
Details in all cases: glycan notation: IUPAC condensed, linker removed
Fuc(a1-2)Gal = molecular target: Fuc(a1-2)Gal
Procedure, shortened: (§1)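 The binding signal is a Z-score computed within each array. Data were drawn from 3228 arrays in the Consortium for Functional Glycomics database, restricted to those with a known protein sequence. Scores were averaged over arrays of the same protein sequence at different concentrations or buffers, and over linkers, and negative values can be taken as non-binding.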

Fuc(a1-2)Gal(b1-3)GalNAc = molecular target: Fuc(a1-2)Gal(b1-3)GalNAc
Procedure, shortened: as §1

[1] = molecular target: Fuc(a1-2)Gal(b1-3)GalNAc(a1-3)[Fuc(a1-2)]Gal(b1-4)Glc
Procedure, shortened: as §1

[2] = molecular target: Fuc(a1-2)Gal(b1-3)GalNAc(a1-3)[Fuc(a1-2)]Gal(b1-4)GlcNAc
Procedure, shortened: as §1

[3] = molecular target: Fuc(a1-2)Gal(b1-3)GalNAc(b1-3)Gal
Procedure, shortened: as §1

[4] = molecular target: Fuc(a1-2)Gal(b1-3)GalNAc(b1-3)Gal(a1-4)Gal(b1-4)Glc
Procedure, shortened: as §1

[5] = molecular target: Fuc(a1-2)Gal(b1-3)GalNAc(b1-4)[Neu5Ac(a2-3)]Gal(b1-4)Glc
Procedure, shortened: as §1

Fuc(a1-2)Gal(b1-3)GlcNAc = molecular target: Fuc(a1-2)Gal(b1-3)GlcNAc
Procedure, shortened: as §1

[6] = molecular target: Fuc(a1-2)Gal(b1-3)GlcNAc(b1-2)Man(a1-3)[Fuc(a1-2)Gal(b1-3)GlcNAc(b1-2)Man(a1-6)]Man(b1-4)GlcNAc(b1-4)GlcNAc
Procedure, shortened: as §1

[7] = molecular target: Fuc(a1-2)Gal(b1-3)GlcNAc(b1-2)Man(a1-3)[Fuc(a1-2)Gal(b1-3)GlcNAc(b1-2)Man(a1-6)]Man(b1-4)GlcNAc(b1-4)[Fuc(a1-6)]GlcNAc
Procedure, shortened: as §1

[8] = molecular target: Fuc(a1-2)Gal(b1-3)GlcNAc(b1-3)Gal(b1-4)Glc
Procedure, shortened: as §1

[9] = molecular target: Fuc(a1-2)Gal(b1-3)GlcNAc(b1-3)GalNAc
Procedure, shortened: as §1

[10] = molecular target: Fuc(a1-2)Gal(b1-3)GlcNAc(b1-3)[Fuc(a1-2)Gal(b1-3)GlcNAc(b1-6)]GalNAc
Procedure, shortened: as §1

[11] = molecular target: Fuc(a1-2)Gal(b1-3)GlcNAc(b1-3)[Gal(b1-4)GlcNAc(b1-6)]Gal(b1-4)Glc
Procedure, shortened: as §1

[12] = molecular target: Fuc(a1-2)Gal(b1-3)GlcNAc(b1-3)[Neu5Ac(a2-6)Gal(b1-4)GlcNAc(b1-6)]Gal(b1-4)Glc
Procedure, shortened: as §1

[13] = molecular target: Fuc(a1-2)Gal(b1-3)GlcNAc6S
Procedure, shortened: as §1

[14] = molecular target: Fuc(a1-2)Gal(b1-3)[Fuc(a1-4)]GlcNAc
Procedure, shortened: as §1

[15] = molecular target: Fuc(a1-2)Gal(b1-3)[Fuc(a1-4)]GlcNAc(b1-2)Man(a1-3)[Fuc(a1-2)Gal(b1-3)[Fuc(a1-4)]GlcNAc(b1-2)Man(a1-3)]Man(b1-4)GlcNAc(b1-4)GlcNAc
Procedure, shortened: as §1

[16] = molecular target: Fuc(a1-2)Gal(b1-3)[Fuc(a1-4)]GlcNAc(b1-2)Man(a1-3)[Fuc(a1-2)Gal(b1-3)[Fuc(a1-4)]GlcNAc(b1-2)Man(a1-6)]Man(b1-4)GlcNAc(b1-4)[Fuc(a1-6)]GlcNAc(b1-4)[Fuc(a1-6)]GlcNAc
Procedure, shortened: as §1

[17] = molecular target: Fuc(a1-2)Gal(b1-3)[Fuc(a1-4)]GlcNAc(b1-3)[Fuc(a1-3)[Gal(b1-4)]GlcNAc(b1-6)]Gal(b1-4)Glc
Procedure, shortened: as §1

[18] = molecular target: Fuc(a1-2)Gal(b1-3)[Fuc(a1-4)]GlcNAc(b1-3)[Gal(b1-4)GlcNAc(b1-6)]Gal(b1-4)Glc
Procedure, shortened: as §1

Fuc(a1-2)Gal(b1-4)Glc = molecular target: Fuc(a1-2)Gal(b1-4)Glc
Procedure, shortened: as §1

Fuc(a1-2)Gal(b1-4)Glc6S = molecular target: Fuc(a1-2)Gal(b1-4)Glc6S
Procedure, shortened: as §1

Fuc(a1-2)Gal(b1-4)GlcNAc = molecular target: Fuc(a1-2)Gal(b1-4)GlcNAc
Procedure, shortened: as §1

[19] = molecular target: Fuc(a1-2)Gal(b1-4)GlcNAc(b1-2)Man
Procedure, shortened: as §1

[20] = molecular target: Fuc(a1-2)Gal(b1-4)GlcNAc(b1-2)Man(a1-3)[Fuc(a1-2)Gal(b1-4)GlcNAc(b1-2)Man(a1-6)]Man(b1-4)GlcNAc(b1-4)GlcNAc
Procedure, shortened: as §1

[21] = molecular target: Fuc(a1-2)Gal(b1-4)GlcNAc(b1-2)Man(a1-3)[Fuc(a1-2)Gal(b1-4)GlcNAc(b1-2)Man(a1-6)]Man(b1-4)GlcNAc(b1-4)[Fuc(a1-6)]GlcNAc
Procedure, shortened: as §1

[22] = molecular target: Fuc(a1-2)Gal(b1-4)GlcNAc(b1-2)[Fuc(a1-2)Gal(b1-4)GlcNAc(b1-4)]Man(a1-3)[Fuc(a1-2)Gal(b1-4)GlcNAc(b1-2)Man(a1-6)]Man(b1-4)GlcNAc(b1-4)GlcNAc
Procedure, shortened: as §1

[23] = molecular target: Fuc(a1-2)Gal(b1-4)GlcNAc(b1-3)Gal(b1-4)GlcNAc
Procedure, shortened: as §1

[24] = molecular target: Fuc(a1-2)Gal(b1-4)GlcNAc(b1-3)Gal(b1-4)GlcNAc(b1-2)Man(a1-3)[Fuc(a1-2)Gal(b1-4)GlcNAc(b1-3)Gal(b1-4)GlcNAc(b1-2)Man(a1-6)]Man(b1-4)GlcNAc(b1-4)GlcNAc
Procedure, shortened: as §1

[25] = molecular target: Fuc(a1-2)Gal(b1-4)GlcNAc(b1-3)Gal(b1-4)GlcNAc(b1-3)Gal(b1-4)GlcNAc
Procedure, shortened: as §1

[26] = molecular target: Fuc(a1-2)Gal(b1-4)GlcNAc(b1-3)GalNAc
Procedure, shortened: as §1

[27] = molecular target: Fuc(a1-2)Gal(b1-4)GlcNAc(b1-3)[Fuc(a1-2)Gal(b1-4)GlcNAc(b1-6)]GalNAc
Procedure, shortened: as §1

[28] = molecular target: Fuc(a1-2)Gal(b1-4)GlcNAc(b1-3)[Fuc(a1-3)[Gal(b1-4)]GlcNAc(b1-6)]Gal(b1-4)Glc
Procedure, shortened: as §1

[29] = molecular target: Fuc(a1-2)Gal(b1-4)GlcNAc(b1-6)GalNAc
Procedure, shortened: as §1

[30] = molecular target: Fuc(a1-2)Gal(b1-4)GlcNAc6S
Procedure, shortened: as §1

[31] = molecular target: Fuc(a1-2)Gal(b1-4)[Fuc(a1-3)]GlcNAc
Procedure, shortened: as §1

[32] = molecular target: Fuc(a1-2)Gal(b1-4)[Fuc(a1-3)]GlcNAc(b1-2)Man(a1-3)[Fuc(a1-2)Gal(b1-4)[Fuc(a1-3)]GlcNAc(b1-2)Man(a1-6)]Man(b1-4)GlcNAc(b1-4)[Fuc(a1-6)]GlcNAc
Procedure, shortened: as §1

[33] = molecular target: Fuc(a1-2)Gal(b1-4)[Fuc(a1-3)]GlcNAc(b1-2)[Fuc(a1-2)Gal(b1-4)[Fuc(a1-3)]GlcNAc(b1-4)]Man(a1-3)[Fuc(a1-2)Gal(b1-4)[Fuc(a1-3)]GlcNAc(b1-2)Man(a1-6)]Man(b1-4)GlcNAc(b1-4)GlcNAc
Procedure, shortened: as §1

[34] = molecular target: Fuc(a1-2)Gal(b1-4)[Fuc(a1-3)]GlcNAc(b1-3)Gal(b1-4)[Fuc(a1-3)]GlcNAc
Procedure, shortened: as §1

[35] = molecular target: Fuc(a1-2)Gal(b1-4)[Fuc(a1-3)]GlcNAc(b1-3)Gal(b1-4)[Fuc(a1-3)]GlcNAc(b1-3)Gal(b1-4)[Fuc(a1-3)]GlcNAc
Procedure, shortened: as §1

[36] = molecular target: Fuc(a1-2)Gal(b1-4)[Fuc(a1-3)]GlcNAc(b1-3)GalNAc
Procedure, shortened: as §1

[37] = molecular target: Fuc(a1-2)Gal(b1-4)[Fuc(a1-3)]GlcNAc(b1-3)[Neu5Ac(a2-6)Gal(b1-4)GlcNAc(b1-6)]Gal(b1-4)Glc
Procedure, shortened: as §1

[38] = molecular target: Fuc(a1-2)Gal3S(b1-4)GlcNAc
Procedure, shortened: as §1

[39] = molecular target: Fuc(a1-2)Gal6S(b1-3)GlcNAc
Procedure, shortened: as §1

B1: PX9916F-bfa-443-24-443 (Bacteroides fragilis) (protein)
chain: DIRPVGSVIPQTAEEYRALLARAYLNVPNDRGLACLRSDEMLVNDNEYDRNSYGDIERWNDVSPFPGTSQFTWSNFYNVLFIANQVIESQKEITEGTPEVVNQLVGEAHLLRAYLHFVLVNLHGQPYTKSGALNSKSIPLKLDTDLEKTLGRNTVEEVYTSILSDIEHARELINKEKWETVFSYRFNVLSVDALQSRVSLYMGAWPKCLESAEAVLAKKSVLVDMNETPLALPNHFESVESITALEQVMGSSVNNAVWVPATFLALYQEGDKRLAAYFAAPDENGNRKSSKGGKREFSCTFRVGELYLNAAEAAANMDKLPHARMRLLELMRKRYTPEAYDKKENAVNVMDKNALISEILNERARELAFEGHRWFDLRRTTRPRMVKVLQGKTYILEQDDPRYTIPIPRDAIAANPGLAN
Fuc(a1-2)Gal
  glycan array binding signal (z-score): 0.215
Fuc(a1-2)Gal(b1-3)GalNAc
  glycan array binding signal (z-score): 0.079
[1]
  glycan array binding signal (z-score): -0.506
[2]
  glycan array binding signal (z-score): -0.051
[3]
  glycan array binding signal (z-score): 0.673
[4]
  glycan array binding signal (z-score): -0.012
[5]
  glycan array binding signal (z-score): -0.891
Fuc(a1-2)Gal(b1-3)GlcNAc
  glycan array binding signal (z-score): -0.185
[6]
  glycan array binding signal (z-score): 3.24
[7]
  glycan array binding signal (z-score): 0.444
[8]
  glycan array binding signal (z-score): -0.998
[9]
  glycan array binding signal (z-score): 0.31
[10]
  glycan array binding signal (z-score): -0.372
[11]
  glycan array binding signal (z-score): 1.47
[12]
  glycan array binding signal (z-score): -0.429
[13]
  glycan array binding signal (z-score): -0.338
[14]
  glycan array binding signal (z-score): 0.301
[15]
  glycan array binding signal (z-score): -0.043
[16]
  glycan array binding signal (z-score): 0.523
[17]
  glycan array binding signal (z-score): -0.27
[18]
  glycan array binding signal (z-score): 1.83
Fuc(a1-2)Gal(b1-4)Glc
  glycan array binding signal (z-score): -1.03
Fuc(a1-2)Gal(b1-4)Glc6S
  glycan array binding signal (z-score): 0.015
Fuc(a1-2)Gal(b1-4)GlcNAc
  glycan array binding signal (z-score): -0.289
[19]
  glycan array binding signal (z-score): 0.848
[20]
  glycan array binding signal (z-score): 0.225
[21]
  glycan array binding signal (z-score): -0.092
[22]
  glycan array binding signal (z-score): 0.619
[23]
  glycan array binding signal (z-score): -0.888
[24]
  glycan array binding signal (z-score): -0.159
[25]
  glycan array binding signal (z-score): -0.637
[26]
  glycan array binding signal (z-score): 0.279
[27]
  glycan array binding signal (z-score): 0.024
[28]
  glycan array binding signal (z-score): -1.05
[29]
  glycan array binding signal (z-score): 1.4
[30]
  glycan array binding signal (z-score): -0.807
[31]
  glycan array binding signal (z-score): -0.386
[32]
  glycan array binding signal (z-score): 1.08
[33]
  glycan array binding signal (z-score): 2.44
[34]
  glycan array binding signal (z-score): -0.773
[35]
  glycan array binding signal (z-score): 0.451
[36]
  glycan array binding signal (z-score): -0.044
[37]
  glycan array binding signal (z-score): 1.41
[38]
  glycan array binding signal (z-score): 0.095
[39]
  glycan array binding signal (z-score): -0.051
